Laboratory results taken from paper PMC8672067, “Inhibitors of the Bub1 spindle assembly checkpoint kinase: synthesis of BAY-320 and comparison with 2OH-BNPP1” (Royal Society Open Science, 2021).
No constants are given. Whether binding was seen depends on the method and setting. Binding seen in cells or lysates may run through a third protein. Some binding calls cover weakened binding; strength is not graded here. For some assays here: Where a sequence is shown, tags or fusion partners need not be part of it.

Sequences of proteins named here, by UniProt entry; tags and fusion partners are left off.
UniProt O43684: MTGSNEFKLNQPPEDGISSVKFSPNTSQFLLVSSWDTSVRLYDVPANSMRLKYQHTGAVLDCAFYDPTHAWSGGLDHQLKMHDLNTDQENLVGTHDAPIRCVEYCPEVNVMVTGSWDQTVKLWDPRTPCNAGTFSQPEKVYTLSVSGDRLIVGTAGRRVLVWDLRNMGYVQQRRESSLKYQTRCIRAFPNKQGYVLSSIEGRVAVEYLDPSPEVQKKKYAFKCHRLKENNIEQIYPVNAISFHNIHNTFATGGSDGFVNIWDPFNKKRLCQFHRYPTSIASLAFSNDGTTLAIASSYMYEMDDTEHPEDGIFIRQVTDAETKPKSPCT

Legend:
[1] = target: GFP-Bub1 (wild-type, full-length Bub1 with an N-terminal GFP tag) (human) (UniProt O43683); test: co-IP; GFP-Bub1 captured from lysate of tetracycline-induced, nocodazole-treated (16-18 h) HEK-293 cells with purified GST-GFP-binder on glutathione sepharose beads, 4°C, at least 3 h; lysis buffer 0.1% Triton X-100, 100 mM NaCl, 10 mM Tris pH 7.4; beads washed five times; immunoblot for Bub3
[2] = target: T1, GFP-Bub1 K821R (catalytically inactive full-length Bub1 with an N-terminal GFP tag) (human) (UniProt O43683); test: as above
T1 sequence: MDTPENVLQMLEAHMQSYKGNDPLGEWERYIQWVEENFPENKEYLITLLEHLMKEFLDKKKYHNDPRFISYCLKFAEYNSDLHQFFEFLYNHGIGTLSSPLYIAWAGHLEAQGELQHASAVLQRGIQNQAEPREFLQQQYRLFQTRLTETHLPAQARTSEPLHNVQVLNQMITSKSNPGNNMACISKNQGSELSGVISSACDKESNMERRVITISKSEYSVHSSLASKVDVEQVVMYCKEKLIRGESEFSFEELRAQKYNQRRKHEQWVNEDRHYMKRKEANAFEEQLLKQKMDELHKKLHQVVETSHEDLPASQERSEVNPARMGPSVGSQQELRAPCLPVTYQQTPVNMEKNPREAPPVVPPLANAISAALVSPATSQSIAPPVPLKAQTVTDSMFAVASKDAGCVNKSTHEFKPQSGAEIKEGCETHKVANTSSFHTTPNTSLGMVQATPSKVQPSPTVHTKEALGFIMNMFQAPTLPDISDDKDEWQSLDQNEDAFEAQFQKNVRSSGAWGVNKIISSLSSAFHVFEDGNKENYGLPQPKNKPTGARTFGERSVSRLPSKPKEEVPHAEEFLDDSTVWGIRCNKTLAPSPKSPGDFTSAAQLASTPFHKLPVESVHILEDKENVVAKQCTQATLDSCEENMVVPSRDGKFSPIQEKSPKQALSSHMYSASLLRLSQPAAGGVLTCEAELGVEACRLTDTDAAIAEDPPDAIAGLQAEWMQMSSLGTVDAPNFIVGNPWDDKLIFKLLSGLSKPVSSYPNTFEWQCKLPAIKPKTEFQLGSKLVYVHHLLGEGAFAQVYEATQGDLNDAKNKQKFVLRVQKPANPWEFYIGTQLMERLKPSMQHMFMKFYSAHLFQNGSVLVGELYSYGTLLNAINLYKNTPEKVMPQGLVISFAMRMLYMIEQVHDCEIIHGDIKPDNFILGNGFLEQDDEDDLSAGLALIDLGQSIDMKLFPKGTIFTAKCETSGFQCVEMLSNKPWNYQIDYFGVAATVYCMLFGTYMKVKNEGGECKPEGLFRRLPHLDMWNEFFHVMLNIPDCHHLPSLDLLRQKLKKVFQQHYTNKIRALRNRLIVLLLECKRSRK

Bub3 (from UniProt O43684 1-328) was tested, and the binding [1] was “binds” and the binding [2] was “binds”.
